Further values from the same series stand in other lists.
How the values were obtained:
Format in all cases: functional
Candida parapsilosis [1] = assay: Decrease in STE3 gene expression in Candida parapsilosis CLIB214 at 50 uM after 2 hrs by microarray based transcriptional profiling relative to control
Candida parapsilosis [2] = assay: Decrease in KEL1 gene expression in Candida parapsilosis CLIB214 at 50 uM after 2 hrs by microarray based transcriptional profiling relative to control
Candida parapsilosis [3] = assay: Increase in RPN2 gene expression in Candida parapsilosis CLIB214 at 50 uM after 2 hrs by microarray based transcriptional profiling relative to control
Candida parapsilosis [4] = assay: Decrease in CCC1 gene expression in Candida parapsilosis CLIB214 at 50 uM after 2 hrs by microarray based transcriptional profiling relative to control
Candida parapsilosis [5] = assay: Increase in MCR1 gene expression in Candida parapsilosis CLIB214 at 50 uM after 2 hrs by microarray based transcriptional profiling relative to control
Candida parapsilosis [6] = assay: Decrease in CGD gene ortholog accession number orf19.833 expression in Candida parapsilosis CLIB214 at 50 uM after 2 hrs by microarray based transcriptional profiling relative to control
Candida parapsilosis [7] = assay: Decrease in CGD gene ortholog accession number orf19.1852 expression in Candida parapsilosis CLIB214 at 50 uM after 2 hrs by microarray based transcriptional profiling relative to control
Candida parapsilosis [8] = assay: Increase in CGD gene ortholog accession number orf19.3023 expression in Candida parapsilosis CLIB214 at 50 uM after 2 hrs by microarray based transcriptional profiling relative to control
Candida parapsilosis [9] = assay: Increase in CGD gene ortholog accession number orf19.2527 expression in Candida parapsilosis CLIB214 at 50 uM after 2 hrs by microarray based transcriptional profiling relative to control
Candida parapsilosis [10] = assay: Decrease in HGT5 gene expression in Candida parapsilosis CLIB214 at 50 uM after 2 hrs by microarray based transcriptional profiling relative to control
Candida parapsilosis [11] = assay: Increase in SCH9 gene expression in Candida parapsilosis CLIB214 at 50 uM after 2 hrs by microarray based transcriptional profiling relative to control
Candida parapsilosis [12] = assay: Decrease in CGD gene ortholog accession number orf19.6283 expression in Candida parapsilosis CLIB214 at 50 uM after 2 hrs by microarray based transcriptional profiling relative to control
Candida parapsilosis [13] = assay: Increase in GLT1 gene expression in Candida parapsilosis CLIB214 at 50 uM after 2 hrs by microarray based transcriptional profiling relative to control
Candida parapsilosis [14] = assay: Decrease in CGD gene ortholog accession number orf19.4985 expression in Candida parapsilosis CLIB214 at 50 uM after 2 hrs by microarray based transcriptional profiling relative to control
Candida parapsilosis [15] = assay: Decrease in CGD gene ortholog accession number orf19.3451 expression in Candida parapsilosis CLIB214 at 50 uM after 2 hrs by microarray based transcriptional profiling relative to control
Candida parapsilosis [16] = assay: Increase in GenBank accession number NP_943638.1 expression in Candida parapsilosis CLIB214 at 50 uM after 2 hrs by microarray based transcriptional profiling relative to control
Candida parapsilosis [17] = assay: Increase in CGD gene ortholog accession number orf19.7297 expression in Candida parapsilosis CLIB214 at 50 uM after 2 hrs by microarray based transcriptional profiling relative to control
Candida parapsilosis [18] = assay: Decrease in DUR4 gene expression in Candida parapsilosis CLIB214 at 50 uM after 2 hrs by microarray based transcriptional profiling relative to control
Candida parapsilosis [19] = assay: Decrease in CGD gene ortholog accession number orf19.804 expression in Candida parapsilosis CLIB214 at 50 uM after 2 hrs by microarray based transcriptional profiling relative to control
Candida parapsilosis [20] = assay: Increase in DBP2 gene expression in Candida parapsilosis CLIB214 at 50 uM after 2 hrs by microarray based transcriptional profiling relative to control
Candida parapsilosis [21] = assay: Increase in CGD gene ortholog accession number orf19.2538 expression in Candida parapsilosis CLIB214 at 50 uM after 2 hrs by microarray based transcriptional profiling relative to control
Candida parapsilosis [22] = assay: Increase in GDH3 gene expression in Candida parapsilosis CLIB214 at 50 uM after 2 hrs by microarray based transcriptional profiling relative to control
Candida parapsilosis [23] = assay: Increase in CGD gene ortholog accession number orf19.3456 expression in Candida parapsilosis CLIB214 at 50 uM after 2 hrs by microarray based transcriptional profiling relative to control
Candida parapsilosis [24] = assay: Increase in GenBank accession number NP_943636.1 expression in Candida parapsilosis CLIB214 at 50 uM after 2 hrs by microarray based transcriptional profiling relative to control
Candida parapsilosis [25] = assay: Decrease in MAF1 gene expression in Candida parapsilosis CLIB214 at 50 uM after 2 hrs by microarray based transcriptional profiling relative to control
Candida parapsilosis [26] = assay: Decrease in CGD gene ortholog accession number orf19.2565 expression in Candida parapsilosis CLIB214 at 50 uM after 2 hrs by microarray based transcriptional profiling relative to control
Candida parapsilosis [27] = assay: Increase in CGD gene ortholog accession number orf19.4757 expression in Candida parapsilosis CLIB214 at 50 uM after 2 hrs by microarray based transcriptional profiling relative to control
Candida parapsilosis [28] = assay: Decrease in CGD gene ortholog accession number orf19.5515 expression in Candida parapsilosis CLIB214 at 50 uM after 2 hrs by microarray based transcriptional profiling relative to control
Candida parapsilosis [29] = assay: Increase in CGD gene ortholog accession number orf19.7069 expression in Candida parapsilosis CLIB214 at 50 uM after 2 hrs by microarray based transcriptional profiling relative to control
Candida parapsilosis [30] = assay: Increase in CGD gene ortholog accession number orf19.4931 expression in Candida parapsilosis CLIB214 at 50 uM after 2 hrs by microarray based transcriptional profiling relative to control
Candida parapsilosis [31] = assay: Increase in CGD gene ortholog accession number orf19.5533 expression in Candida parapsilosis CLIB214 at 50 uM after 2 hrs by microarray based transcriptional profiling relative to control
Candida parapsilosis [32] = assay: Decrease in CGD gene ortholog accession number orf19.6171 expression in Candida parapsilosis CLIB214 at 50 uM after 2 hrs by microarray based transcriptional profiling relative to control
Candida parapsilosis [33] = assay: Increase in CGD gene ortholog accession number orf19.5356 expression in Candida parapsilosis CLIB214 at 50 uM after 2 hrs by microarray based transcriptional profiling relative to control
Candida parapsilosis [34] = assay: Decrease in CGD gene ortholog accession number orf19.1007 expression in Candida parapsilosis CLIB214 at 50 uM after 2 hrs by microarray based transcriptional profiling relative to control
Candida parapsilosis [35] = assay: Increase in CGD gene ortholog accession number orf19.7378 expression in Candida parapsilosis CLIB214 at 50 uM after 2 hrs by microarray based transcriptional profiling relative to control
Candida parapsilosis [36] = assay: Decrease in ARF3 gene expression in Candida parapsilosis CLIB214 at 50 uM after 2 hrs by microarray based transcriptional profiling relative to control

## CC(C)=CCC/C(C)=C/CC/C(C)=C/CO [FARNESOL]
Candida parapsilosis [1]
  fold change (FC): 1.65
Candida parapsilosis [2]
  fold change (FC): 1.55
Candida parapsilosis [3]
  fold change (FC): 1.69
Candida parapsilosis [4]
  fold change (FC): 1.65
Candida parapsilosis [5]
  fold change (FC): 2.55
Candida parapsilosis [6]
  fold change (FC): 1.61
Candida parapsilosis [7]
  fold change (FC): 1.63
Candida parapsilosis [8]
  fold change (FC): 1.56
Candida parapsilosis [9]
  fold change (FC): 1.52
Candida parapsilosis [10]
  fold change (FC): 1.99
Candida parapsilosis [11]
  fold change (FC): 1.62
Candida parapsilosis [12]
  fold change (FC): 1.89
Candida parapsilosis [13]
  fold change (FC): 2.23
Candida parapsilosis [14]
  fold change (FC): 1.72
Candida parapsilosis [15]
  fold change (FC): 1.94
Candida parapsilosis [16]
  fold change (FC): 4.5
Candida parapsilosis [17]
  fold change (FC): 2.08
Candida parapsilosis [18]
  fold change (FC): 2.01
Candida parapsilosis [19]
  fold change (FC): 1.6
Candida parapsilosis [20]
  fold change (FC): 3.1
Candida parapsilosis [21]
  fold change (FC): 1.62
Candida parapsilosis [22]
  fold change (FC): 1.71
Candida parapsilosis [23]
  fold change (FC): 1.68
Candida parapsilosis [24]
  fold change (FC): 2.18
Candida parapsilosis [25]
  fold change (FC): 2.14
Candida parapsilosis [26]
  fold change (FC): 1.75
Candida parapsilosis [27]
  fold change (FC): 1.72
Candida parapsilosis [28]
  fold change (FC): 2.23
Candida parapsilosis [29]
  fold change (FC): 1.55
Candida parapsilosis [30]
  fold change (FC): 1.54
Candida parapsilosis [31]
  fold change (FC): 2.13
Candida parapsilosis [32]
  fold change (FC): 1.6
Candida parapsilosis [33]
  fold change (FC): 2.75
Candida parapsilosis [34]
  fold change (FC): 1.93
Candida parapsilosis [35]
  fold change (FC): 2.01
Candida parapsilosis [36]
  fold change (FC): 1.51

Source: ChEMBL document CHEMBL1157379, “Transcriptional response of Candida parapsilosis following exposure to farnesol” (2007)
